Taken from: PubChem BioAssay AID1259308 (NCATS, 2017)
Here is a random part of about 59,000 reagents tested. About 1,510 of all reagents (2.6%) were called active. 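Calls use total luciferase alone and ignore viability, so some active siRNAs may act by altering cell number.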 Reagents against one gene are numbered here. Not all columns of the deposit are shown.

- Purpose: 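Genes whose loss raises luciferase production in HEK293 cells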 (primary screen)
- Cell system: human HEK293 embryonic kidney cells stably expressing firefly luciferase (HEK-CMV-Luc2-Hygro)
- Knock-down reagent: single siRNA against human genes, 0.8 pmol siRNA per well
- Timing: 72 h
- Read-out: 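Luciferase light (ONE-Glo) measured on one replicate plate set and viability (CellTiter-Glo) on the other, scaled to a negative control siRNA, with robust z-scores and luciferase per cell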
- Reading the numbers: total luciferase, z-score: higher = more reporter protein produced
- Rule for the call: 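Active when the median/MAD z-score for overall luciferase is greater than 3; a gene was taken forward for validation with new siRNAs if at least two of its three siRNAs passed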
- Calls: active = raised luciferase; inactive = no rise

total luciferase, z-score, by gene and reagent
ZNF696 (zinc finger protein 696): #1 1.19 inactive; #2 0.564 inactive; #3 1.85 inactive
SASH1 (SAM and SH3 domain containing 1): #1 -0.0481 inactive; #2 1.34 inactive; #3 1.24 inactive
FIBP (FGF1 intracellular binding protein): #1 0.628 inactive; #2 2.21 inactive; #3 -0.0571 inactive
SYNE1 (spectrin repeat containing nuclear envelope protein 1): #1 -1.87 inactive; #2 0.385 inactive; #3 -0.086 inactive
DYNLRB1 (dynein light chain roadblock-type 1): #1 -1.76 inactive; #2 1.25 inactive; #3 0.827 inactive
RRP8 (ribosomal RNA processing 8): #1 0.238 inactive; #2 -0.343 inactive; #3 0.0257 inactive
STK36 (serine/threonine kinase 36): #1 0.325 inactive; #2 0.235 inactive; #3 0.676 inactive
CDK20 (cyclin dependent kinase 20): #1 0.323 inactive; #2 1.43 inactive; #3 -0.315 inactive

2 entries from above, sorted by “total luciferase, z-score”, highest first:
gene	reagent	total luciferase, z-score	Call
STK36 (serine/threonine kinase 36)	3	0.676	inactive
STK36 (serine/threonine kinase 36)	2	0.235	inactive
